Among the data in the supplement of paper PMC6331611 are normalized growth values, retold here.

± gives the standard deviation of the averaged measurements. Whole data set: some 1,600 compounds, median “normalized growth (OD600, IQM-normalized) in LPM” near 1, cut for the lowest 2% near 0.014. This is one part of the list.

In this assay the test system is Salmonella enterica serovar Typhimurium SL1344. The assay is described as follows: normalized growth (OD600, IQM-normalized) in LPM (fraction of plate interquartile mean); higher = more bacterial growth (less inhibition). The settings on record: LPM pH 5.8; 10 µM; 16 h.
`CC(C)(C)CC(C)(C)c1cc(Cc2cc(C(C)(C)CC(C)(C)C)cc(-n3nc4ccccc4n3)c2O)c(O)c(-n2nc3ccccc3n2)c1` registered a normalized growth of 1.01 ± 0.063.
Next, `NC(=O)c1cnccn1`: 1.01 ± 0.024; `CC(=O)O[C@H]1C(=O)[C@@]2(C)[C@H]([C@H](OC(=O)c3ccccc3)[C@]3(O)C[C@H](OC(=O)[C@H](O)[C@@H](NC(=O)c4ccccc4)c4ccccc4)C(C)=C1C3(C)C)[C@]1(OC(C)=O)CO[C@@H]1C[C@@H]2O`: 0.882 ± 0.057.
`O[C@H]1[C@H](O)[C@@H](O)[C@H](O)[C@@H](O)[C@H]1O` came in with a normalized growth of 1.02 ± 0.015.
Next, `CCCN(CCC)CCc1cccc2c1CC(=O)N2`: 0.919 ± 0.015; `COc1cccc2c1C(=O)c1c(O)c3c(c(O)c1C2=O)C[C@@](O)(C(=O)CO)C[C@@H]3O[C@H]1C[C@H](N)[C@@H](O)[C@H](C)O1`: 0.937 ± 0.011.
Next, `CC(=O)N(c1onc(C)c1C)S(=O)(=O)c1ccc(N)cc1`: 1.08 ± 0.046.
In turn, `Cc1cc(O)cc(C)c1Cl` returned a normalized growth of 0.985 ± 0.23.
As for `Oc1cccc(O)c1`, the figure is 1.05 ± 0.021.
In turn, `CC(N)CCCC(C)(C)O` (configuration not stated) registered a normalized growth of 1.01 ± 0.026.
Next, `CN1CCCN=C1/C=C/c1cccc(O)c1`: 1.02 ± 0.11; `CCOC(=S)SSC(=S)OCC`: 0.885 ± 0.073; `NC(=O)CC[C@H](N)C(=O)O`: 1.04 ± 0.056.
As for `O=C1c2ccccc2C(=O)C1c1ccc(Br)cc1`, the figure is 0.935 ± 0.066; as for `CC=CC1=C(C(=O)O)N2C(=O)[C@@H](NC(=O)[C@H](N)c3ccc(O)cc3)[C@H]2SC1`, 1.04 ± 0.032; as for `CC1/C=C/C=C/C=C/C=C/C=C/C=C/C=C/C(OC2O[C@H](C)[C@@H](O)[C@H](N)[C@@H]2O)CC(O)C(C(=O)O)C(O)CC(=O)CC(O)CC(O)CC(O)CC(=O)CCCC(=O)CC(=O)OC1C(C)CC(C)C(O)CC(=O)c1ccc(N)cc1` (some centres not stated), 1.03 ± 0.045.
`O=c1oc2cc(O)ccc2s1` showed a normalized growth of 0.91 ± 0.046.
The compound `CCOc1ccc2nc(S(N)(=O)=O)sc2c1` registered a normalized growth of 0.838 ± 0.03.
Next, `CN/C(=N\CCSCc1nc[nH]c1C)NC#N`: 0.949 ± 0.034; `C/C(=C\C(=O)OCCCCCCCCC(=O)O)C[C@@H]1OC[C@H](C[C@@H]2O[C@H]2[C@@H](C)[C@H](C)O)[C@@H](O)[C@H]1O`: 0.00952 ± 0.00017; `Cc1ccnc(NS(=O)(=O)c2ccc(N)cc2)n1`: 0.915 ± 0.15.
`[O-][n+]1cccc(CO)c1`: the normalized growth is 1.02 ± 0.07.
In turn, `COc1ccc(C[C@H](N)C(=O)N[C@H]2[C@@H](O)[C@H](n3cnc4c(N(C)C)ncnc43)O[C@@H]2CO)cc1` showed a normalized growth of 1 ± 0.02.
As for `CCCCC/C=C/CCC(=O)N[C@H]1[C@H](Oc2c3cc4cc2Oc2ccc(cc2Cl)[C@@H](O[C@@H]2O[C@H](CO)[C@@H](O)[C@H](O)[C@H]2NC(C)=O)[C@@H]2NC(=O)[C@H](NC(=O)[C@@H]4NC(=O)[C@H]4NC(=O)C(Cc5ccc(c(Cl)c5)O3)NC(=O)[C@H](N)c3ccc(O)c(c3)Oc3cc(O)cc4c3)c3ccc(O)c(c3)-c3c(OC4O[C@H](CO)[C@@H](O)[C@H](O)[C@@H]4O)cc(O)cc3[C@@H](C(=O)O)NC2=O)O[C@H](CO)[C@@H](O)[C@@H]1O` (some centres not stated) [TEICOPLANIN [A(2-1) shown]], the figure is 0.904 ± 0.052; as for `NCCCC(O)(P(=O)(O)O)P(=O)(O)O`, 1.02 ± 0.029; as for `CNC[C@H](O)[C@@H](O)[C@H](O)[C@H](O)CO`, 0.964 ± 0.041.
For `Nc1ccc(S(=O)(=O)Nc2cnc3ccccc3n2)cc1`, the normalized growth was found to be 1.08 ± 0.045.
Consider `C[C@H](Cn1cnc2c(N)ncnc21)OCP(=O)(O)O`, for which the normalized growth worked out at 0.981 ± 0.024.
Next, `CCCCNc1cc(C(=O)O)cc(S(N)(=O)=O)c1Oc1ccccc1`: 1.034 ± 0.0062; `CC(C)n1c(/C=C/C(O)CC(O)CC(=O)O)c(-c2ccc(F)cc2)c2ccccc21` (configuration not stated): 0.992 ± 0.024.
In the case of `CC[C@H](C)C(=O)O[C@H]1C[C@@H](C)C=C2C=C[C@H](C)[C@H](CC[C@@H]3C[C@@H](O)CC(=O)O3)[C@H]21`, the normalized growth was determined as 1.38 ± 0.024.
Next, `CCN(CC)CCOC(=O)c1ccc(N)cc1`: 0.955 ± 0.032.
Next, `CC(C)CCCC(C)N` (configuration not stated): 1.05 ± 0.09; `CC(=O)O[C@H]1C[C@@]2(C)[C@@H](C[C@@H](O)[C@H]3[C@@]4(C)CC[C@@H](O)[C@@H](C)[C@@H]4CC[C@@]32C)/C1=C(\CCC=C(C)C)C(=O)O`: 0.491 ± 0.048; `CC(=O)N[C@@H](CS)C(=O)O`: 1.16 ± 0.078.
Next, `CNCCCC12CCC(c3ccccc31)c1ccccc12`: 0.972 ± 0.046; `OC(c1cc(C(F)(F)F)nc2c(C(F)(F)F)cccc12)C1CCCCN1` (configuration not stated): 1.01 ± 0.035.
`CCCCCC(=O)O[C@]1(C(C)=O)CC[C@H]2[C@@H]3CCC4=CC(=O)CC[C@]4(C)[C@H]3CC[C@@]21C` registered a normalized growth of 1.07 ± 0.02.
Compound `Cc1cc(C)cc(OCC2CNC(=O)O2)c1` (configuration not stated) yielded a normalized growth of 1.02 ± 0.03.
In turn, `CC(=O)O[C@H]1C[C@@H]2CC[C@@H]3[C@H](CC[C@@]4(C)[C@H]3C[C@H]([N+]3(C)CCCCC3)[C@@H]4OC(C)=O)[C@@]2(C)C[C@@H]1N1CCCCC1` yielded a normalized growth of 0.98 ± 0.049.
As for `C[C@@H](O)[C@H]1C(=O)N2C(C(=O)O)=C(S[C@@H]3CN[C@H](C(=O)N(C)C)C3)[C@H](C)[C@H]12`, the figure is 0.114 ± 0.016; as for `CCN(CC)C(=O)/C(C#N)=C/c1cc(O)c(O)c([N+](=O)[O-])c1`, 0.924 ± 0.023; as for `C[C@@H]1O[C@@H](OC[C@H]2O[C@@H](Oc3c(-c4ccc(OCCO)c(OCCO)c4)oc4cc(OCCO)cc(O)c4c3=O)[C@H](O)[C@@H](O)[C@@H]2O)[C@H](O)[C@H](O)[C@H]1O`, 0.92 ± 0.036.
As for `C[C@]12C=CC(=O)C=C1CC[C@H]1[C@@H]3C[C@@H](O)[C@](O)(C(=O)CO)[C@@]3(C)C[C@H](O)[C@@]12F`, the figure is 0.9001 ± 0.0084; as for `CN(C/C=C/c1ccccc1)Cc1cccc2ccccc12`, 0.885 ± 0.019.
Next, `CN1C(=O)OC(C)(C)C1=O`: 1.02 ± 0.031.
Turning to `CC(=O)CCCCn1c(=O)c2c(ncn2C)n(C)c1=O`, the normalized growth amounted to 0.964 ± 0.027.
